Reference: patent US8795956B2, “Method for the anti-inflammatory protection of transplants using quercetin glucuronide” (Boehringer Ingelheim International GmbH, priority 2009, dated 2014)
For at least one compound, name, drawing or mass did not settle the structure.

What was measured:
[1] = Storage stability of frozen aqueous stock solution; assay type: physicochemical; conditions: 100× concentrated aqueous stock solution adjusted to pH 7.4, frozen, −80° C.
activated platelets = test: Synthesis of PAF and LTB4 by activated platelets; assay type: cell-based

O=C(O)[C@H]1O[C@@H](Oc2c(-c3ccc(O)c(O)c3)oc3cc(O)cc(O)c3c2=O)[C@H](O)[C@@H](O)[C@@H]1O [QG, quercetin glucuronide]
storage time of stock solution [1]: at least 6 months
inhibition of the synthesis of PAF and LTB4 carried out by activated platelets (activated platelets): strongly inhibit
